Assay results: paper PMC7862700
This is one part of the list. Construct or isoform of the protein are uncertain.

Target: T1, ELF2 (UniProt Q15723)
T1 sequence: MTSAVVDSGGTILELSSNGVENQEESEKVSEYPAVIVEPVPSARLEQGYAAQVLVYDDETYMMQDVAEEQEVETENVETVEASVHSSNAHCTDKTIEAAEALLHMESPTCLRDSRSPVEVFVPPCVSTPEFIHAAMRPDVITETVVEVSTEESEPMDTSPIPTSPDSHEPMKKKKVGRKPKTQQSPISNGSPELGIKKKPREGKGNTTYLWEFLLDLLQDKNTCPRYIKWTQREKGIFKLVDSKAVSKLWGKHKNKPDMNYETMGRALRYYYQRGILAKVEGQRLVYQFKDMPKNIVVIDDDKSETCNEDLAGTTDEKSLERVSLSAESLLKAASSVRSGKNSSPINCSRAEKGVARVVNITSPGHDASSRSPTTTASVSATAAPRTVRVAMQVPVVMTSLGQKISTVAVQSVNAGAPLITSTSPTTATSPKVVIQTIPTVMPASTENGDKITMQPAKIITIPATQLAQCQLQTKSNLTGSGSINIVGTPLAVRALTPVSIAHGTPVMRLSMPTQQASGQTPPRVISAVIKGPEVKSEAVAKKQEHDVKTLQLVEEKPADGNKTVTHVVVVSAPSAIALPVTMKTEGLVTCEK
Experiment: DAPPL (digital affinity profiling via proximity ligation, sequencing)
Details: 10 mM Tris-HCl pH 7.5, 50 mM NaCl, 1 mM DTT, 4% glycerol, room temperature, 30 min; GST-TFs on glutathione beads, 16-mer random dsDNA library, 0.1% …; high values mean tight binding; double strand, one strand shown; scale: fold enrichment (6-mer frequency, TF over GST control)

| Sequence | binding signal |
| --- | --- |
| TGACTT | 1.58 |
| CGTCCC | 1.22 |
| TAATGA | 1.12 |
| AATAAC | 1.34 |
| AGCTAA | 1.04 |
| TGACTC | 1.23 |
| CCTATG | 1.24 |
| TCTGCC | 1.28 |
| AACAGC | 1.08 |
| CTGCCC | 1.22 |
| TTAGTT | 1.33 |
| TCTAAT | 1.11 |
| AACGAA | 1.13 |
| TCTGGG | 1.03 |
| ATTCTA | 1.24 |
| GAAATA | 1.79 |
| GAAAGA | 1.03 |
| CCTCGT | 1.17 |
| CTCATG | 1.15 |

A different layout for part of the listing above.
Sequence	binding signal
TGACTC	1.23
ATTCTA	1.24
